Assay results published in PMC11101406.
Results are given in words; binding and its absence hold for the method and conditions named. For part of these data: In cells and extracts the contact can be indirect.

Protein sequences, listed by entry. Tags and fused reporters are not part of them. Lines headed by an entry give the natural chain unless they say otherwise; changes in a name come on top. Chains listed by the source or under a name are the forms on record and can include a tag or linker. Residues count along the entry.
UniProt P28023: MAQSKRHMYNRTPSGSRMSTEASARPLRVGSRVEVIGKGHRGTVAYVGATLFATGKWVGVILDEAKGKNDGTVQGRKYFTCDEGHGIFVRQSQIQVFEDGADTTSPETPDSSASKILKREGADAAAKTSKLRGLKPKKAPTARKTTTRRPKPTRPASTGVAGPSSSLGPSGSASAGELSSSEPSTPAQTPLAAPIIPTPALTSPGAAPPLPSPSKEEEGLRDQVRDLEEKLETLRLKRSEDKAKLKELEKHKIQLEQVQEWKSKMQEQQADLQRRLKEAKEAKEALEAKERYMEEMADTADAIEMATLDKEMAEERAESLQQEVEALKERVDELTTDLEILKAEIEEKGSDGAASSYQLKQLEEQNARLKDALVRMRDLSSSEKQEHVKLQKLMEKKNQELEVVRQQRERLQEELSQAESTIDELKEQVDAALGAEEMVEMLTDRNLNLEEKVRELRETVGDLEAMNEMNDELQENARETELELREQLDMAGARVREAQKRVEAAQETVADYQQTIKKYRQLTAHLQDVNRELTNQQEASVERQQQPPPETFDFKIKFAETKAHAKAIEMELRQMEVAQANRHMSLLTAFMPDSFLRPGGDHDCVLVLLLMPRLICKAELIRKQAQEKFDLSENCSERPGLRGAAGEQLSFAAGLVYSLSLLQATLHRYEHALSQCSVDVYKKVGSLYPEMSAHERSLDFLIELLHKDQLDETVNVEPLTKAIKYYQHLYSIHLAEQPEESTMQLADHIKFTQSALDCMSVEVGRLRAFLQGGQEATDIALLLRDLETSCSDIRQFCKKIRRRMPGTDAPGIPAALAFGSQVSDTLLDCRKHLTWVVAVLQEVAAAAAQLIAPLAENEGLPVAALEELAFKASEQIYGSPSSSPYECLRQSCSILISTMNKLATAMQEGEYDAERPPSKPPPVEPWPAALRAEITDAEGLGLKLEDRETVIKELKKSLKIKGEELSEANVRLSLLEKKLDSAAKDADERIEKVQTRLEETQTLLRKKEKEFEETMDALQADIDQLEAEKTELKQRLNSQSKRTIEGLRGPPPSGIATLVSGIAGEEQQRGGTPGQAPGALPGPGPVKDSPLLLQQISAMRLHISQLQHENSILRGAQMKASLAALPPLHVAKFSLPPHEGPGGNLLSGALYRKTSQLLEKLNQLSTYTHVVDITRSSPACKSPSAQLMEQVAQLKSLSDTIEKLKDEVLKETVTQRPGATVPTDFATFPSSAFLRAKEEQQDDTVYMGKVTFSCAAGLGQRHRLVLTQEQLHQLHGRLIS
AviHA-tagged p150^Glued N fragment: residues 1-490 of P28023
GST-p150^Glued C: residues 490-1280 of P28023
GST-p150^Glued C2: residues 1049-1280 of P28023
UniProt P63010: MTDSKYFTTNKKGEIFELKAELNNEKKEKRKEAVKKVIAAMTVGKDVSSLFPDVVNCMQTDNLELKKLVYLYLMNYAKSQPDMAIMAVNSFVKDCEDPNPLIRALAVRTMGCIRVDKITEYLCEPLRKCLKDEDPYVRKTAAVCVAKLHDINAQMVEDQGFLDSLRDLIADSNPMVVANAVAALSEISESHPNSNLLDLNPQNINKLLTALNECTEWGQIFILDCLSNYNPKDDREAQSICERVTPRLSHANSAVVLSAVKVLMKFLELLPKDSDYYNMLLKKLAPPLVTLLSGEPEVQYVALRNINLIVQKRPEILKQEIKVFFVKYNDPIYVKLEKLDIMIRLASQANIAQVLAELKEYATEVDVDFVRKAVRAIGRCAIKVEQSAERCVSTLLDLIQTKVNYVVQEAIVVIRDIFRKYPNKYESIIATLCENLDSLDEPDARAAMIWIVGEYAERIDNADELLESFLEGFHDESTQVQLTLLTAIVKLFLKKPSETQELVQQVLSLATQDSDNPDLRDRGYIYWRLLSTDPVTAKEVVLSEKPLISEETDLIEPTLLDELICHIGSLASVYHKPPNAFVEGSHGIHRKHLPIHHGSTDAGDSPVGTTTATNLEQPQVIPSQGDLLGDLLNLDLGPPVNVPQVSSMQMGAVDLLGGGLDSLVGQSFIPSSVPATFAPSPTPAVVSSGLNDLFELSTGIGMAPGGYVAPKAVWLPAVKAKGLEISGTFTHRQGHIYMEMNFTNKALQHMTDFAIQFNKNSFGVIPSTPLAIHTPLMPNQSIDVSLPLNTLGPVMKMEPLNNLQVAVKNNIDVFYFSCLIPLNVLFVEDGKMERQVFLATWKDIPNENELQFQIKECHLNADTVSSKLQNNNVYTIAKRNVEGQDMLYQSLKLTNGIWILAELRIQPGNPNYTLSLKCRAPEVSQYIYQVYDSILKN

Experiments:
GST-p150^Glued C = GST-p150^Glued C (UniProt P28023); assay: pull-down; pull down of E. coli-purified recombinant GST fusions with recombinant His-AP-2β ear; Western blot; both purified
GST-p150^Glued C2 = GST-p150^Glued C2 (UniProt P28023); assay: as above
[1] = target: AviHA-tagged p150^Glued N fragment (1-490 aa) (UniProt P28023); assay: pull-down; Avi-tag pull down: in vivo biotinylated Avi-tagged baits pulled down from HEK293T cells, E. coli-produced His-AP-2β ear added; Western blot

binding (GST-p150^Glued C): no binding
binding (GST-p150^Glued C2): no binding
binding [1]: no binding
Substance: His-AP-2β ear (His6-AP-2β appendage domain) (from UniProt P63010) (domain or fragment)
